Our source for the binding values is paper PMC9459403, “New inhibitors of cathepsin V impair tumor cell proliferation and elastin degradation and increase immune cell cytotoxicity” (Computational and Structural Biotechnology Journal, 2022).

These are yes or no findings as the source states them, for the method shown. Some binding calls cover weakened binding; strength is not graded here.

The test has as its target cystatin F (human (endogenous in U-937)) (UniProt O76096). The test is described as follows: non-reducing SDS-PAGE with western blot; whole-cell lysates of U-937 cells in RIPA buffer; cells treated for 6 h with DMSO (0.1 %), E-64d or compound 7 (10 or 20 uM); blot with anti-cystatin F.

B1: cystatin F (protein, UniProt O76096 20-145)
chain: GPSPDTCSQDLNSRVKPGFPKTIKTNDPGVLQAARYSVEKFNNCTNDMFLFKESRITRALVQIVKGLKYMLEVEIGRTTCKKNQHLRLDDCDFQTNHTLKQTLSCYSEVWVVPWLQHFEVPVLRCH
modifications: multiple N-glycosylation forms (sites not given)
Turning to B1, the binding result is on record as “binds”.
